Results on 12 compounds are retold here after PMC6886403, “Structure-Based and Molecular Modeling Studies for the Discovery of Cyclic Imides as Reversible Cruzain Inhibitors With Potent Anti-Trypanosoma cruzi Activity” (Frontiers in Chemistry, 2019).

Molecules are shown by their SMILES. Several values for one entry are separate records, joined by “and”; a condition that tells them apart may be missing. Equal values may be shown once.

One data set deals with HFF-1 human fibroblasts. Description: Cytotoxicity in HFF-1 cells (MTS tetrazolium assay). The data set is classed as cell-based. The settings on record: selectivity index, CC50 HFF-1/IC50 T. cruzi. The protocol: (§1) The cytotoxicities of the compounds against HFF-1 fibroblasts and HepG2 hepatocytes were evaluated using the MTS tetrazolium assay (Promega, Madison, WI) (Barltrop et al., [1991]). HFF-1 fibroblasts were seeded at 2 × 10^3/well in 96-well culture plates in RPMI 1640 without phenol red supplemented with 10% FCS and incubated overnight (37°C, 5% CO2). HepG2 hepatocytes were seeded at 6 × 10^3/well in 96-well culture plates in DMEM (Cultilab, Campinas SP) supplemented with 10% FCS and incubated overnight (37°C, 5% CO2). The compounds were added in 3-fold serial dilutions, and the plates were incubated at 37°C with 5% CO2. Each compound concentration was evaluated in triplicate. All plates included doxorubicin (Sigma-Aldrich, St. Louis, MO) as a positive control and untreated wells (100% growth) as a negative control. After 72 h, 20 μL of MTS was added, and the plates were incubated for 4 h. The absorbance was measured at 490 nm in an automated microplate reader, and the data were transferred to SigmaPlot 10.0 (Systat Software Inc., Erkrath, Germany) for IC50 value calculation. The percent of nonviable cells was determined and compared to the negative control wells (100% growth).
In general terms: Tetrazolium dyes change colour on reduction, which living cells bring about.

For another data set, the system named is HepG2 human hepatocytes. Put plainly: Cytotoxicity in HepG2 cells (MTS tetrazolium assay). The settings on record: selectivity index, CC50 HepG2/IC50 T. cruzi. The data set is classed as cell-based. The protocol: as §1

With `CC(C)C[C@@H](C(=O)OCC(=O)Nc1ccc2ccccc2c1)N1C(=O)C2CC=CCC2C1=O` (stereo partly drawn) [3i, 2-(naphthalen-2-ylamino)-2-oxoethyl (2S)-2-(1,3-dioxo-1,3,3a,4,7,7a-hexahydro-2H-isoindol-2-yl)-4-methylpentanoate], the “SI HFF-1/T. cruzi” value in the data set on HFF-1 human fibroblasts is reported as >3. In addition, the “SI HepG2/T. cruzi” value in the data set with HepG2 human hepatocytes was 1.4.
On to `COc1ccc(NC(=O)COC(=O)[C@H](CC(C)C)N2C(=O)C=CC2=O)cc1Cl` [10c, 2-((3-chloro-4-methoxyphenyl)amino)-2-oxoethyl (S)-2-(2,5-dioxo-2,5-dihydro-1H-pyrrol-1-yl)-4-methylpentanoate], for which, in the data set with HFF-1 human fibroblasts, the “SI HFF-1/T. cruzi” value was > 10 and 13.3. Further, the “SI HepG2/T. cruzi” value in the data set on HepG2 human hepatocytes was 36.6.
Consider `COc1ccc(NC(=O)COC(=O)[C@H](CC(C)C)N2C(=O)CCC2=O)cc1Cl` [10d, 2-((3-chloro-4-methoxyphenyl)amino)-2-oxoethyl (S)-2-(2,5-dioxopyrrolidin-1-yl)-4-methylpentanoate], for which, in the data set with HFF-1 human fibroblasts, the “SI HFF-1/T. cruzi” value is reported as >5. Further, the “SI HepG2/T. cruzi” value in the data set with HepG2 human hepatocytes is on record as >3.
In the same order, the values of `COc1ccc(NC(=O)COC(=O)[C@H](CC(C)C)N2C(=O)C=C(C)C2=O)cc1Cl` [10e, 2-((3-chloro-4-methoxyphenyl)amino)-2-oxoethyl (S)-4-methyl-2-(3-methyl-2,5-dioxo-2,5-dihydro-1H-pyrrol-1-yl)pentanoate] are 4 and 4.2.
As for `COc1ccc(NC(=O)COC(=O)[C@H](CC(C)C)N2C(=O)C(Cl)=C(Cl)C2=O)cc1Cl` [10f, 2-((3-chloro-4-methoxyphenyl)amino)-2-oxoethyl (S)-2-(3,4-dichloro-2,5-dioxo-2,5-dihydro-1H-pyrrol-1-yl)-4-methylpentanoate], the “SI HFF-1/T. cruzi” value in the data set with HFF-1 human fibroblasts was > 10 and 16.5. Moreover, the “SI HepG2/T. cruzi” value in the data set with HepG2 human hepatocytes was > 32.
Turning to `COc1ccc(NC(=O)COC(=O)[C@H](Cc2ccccc2)N2C(=O)C=CC2=O)cc1Cl` [10j, 2-((3-chloro-4-methoxyphenyl)amino)-2-oxoethyl (S)-2-(2,5-dioxo-2,5-dihydro-1H-pyrrol-1-yl)-3-phenylpropanoate], the “SI HFF-1/T. cruzi” value in the data set with HFF-1 human fibroblasts is > 10 and 15.7. For the same compound, in the data set with HepG2 human hepatocytes, the “SI HepG2/T. cruzi” value is reported as 67.
For the compound `COc1ccc(NC(=O)COC(=O)[C@H](CC(C)C)N2CCCCC2)cc1Cl` [10l, 2-((3-chloro-4-methoxyphenyl)amino)-2-oxoethyl (S)-4-methyl-2-(piperidin-1-yl)pentanoate], the “SI HFF-1/T. cruzi” value with HFF-1 human fibroblasts is >8. Also, in the data set on HepG2 human hepatocytes, the “SI HepG2/T. cruzi” value is given as >5.
As for `COc1ccc(NC(=O)COC(=O)[C@H](CC(C)C)N2CCOCC2)cc1Cl` [10m, 2-((3-chloro-4-methoxyphenyl)amino)-2-oxoethyl (S)-4-methyl-2-morpholinopentanoate], the “SI HepG2/T. cruzi” value in the data set with HepG2 human hepatocytes was > 35.
`COc1ccc(NC(=O)COC(=O)[C@H](CC(C)C)N2CCN(C(=O)OC(C)(C)C)CC2)cc1Cl` [10n, tert-butyl (S)-4-(1-(2-((3-chloro-4-methoxyphenyl)amino)-2-oxoethoxy)-4-methyl-1-oxopentan-2-yl)piperazine-1-carboxylate]: in the data set on HFF-1 human fibroblasts, the “SI HFF-1/T. cruzi” value was > 10 and 20. For the same compound, the “SI HepG2/T. cruzi” value in the data set with HepG2 human hepatocytes is on record as 16.9.
For the compound `COc1ccc(NC(=O)COC(=O)[C@H](CC(C)C)N2CCNCC2)cc1Cl.Cl` [10o, 2-((3-chloro-4-methoxyphenyl)amino)-2-oxoethyl (S)-4-methyl-2-(piperazin-1-yl)pentanoate hydrochloride], the “SI HFF-1/T. cruzi” value with HFF-1 human fibroblasts is > 10 and 18.8. The “SI HepG2/T. cruzi” value in the data set on HepG2 human hepatocytes came out at 30.6.
`O=C(Cn1ccnc1[N+](=O)[O-])NCc1ccccc1` [BZ, benznidazole, reference compound]: in the data set with HFF-1 human fibroblasts, the “SI HFF-1/T. cruzi” value was > 33. The “SI HepG2/T. cruzi” value in the data set on HepG2 human hepatocytes is listed as >21.
Take `COc1ccc(NCCOC(=O)C(CC(C)C)N2C(=O)C3CC=CCC3C2=O)cc1Cl` (stereo not shown) [compound 7, 2-((3-chloro-4-methoxyphenyl)amino)ethyl 2-(1,3-dioxo-1,3,3a,4,7,7a-hexahydro-2H-isoindol-2-yl)-4-methylpentanoate]: the “SI HepG2/T. cruzi” value in the data set with HepG2 human hepatocytes is 42.
